According to the supplement of paper PMC12067093, “Discovery and optimisation of a covalent ligand for TRIM25 and its application to targeted protein ubiquitination” (Chemical Science, 2025):
Some of the results follow.

By UniProt entry, the sequences of proteins in these tests, tags left out. Where a name states a change or a piece, a line headed by the entry shows the natural chain unless it says otherwise.
UniProt Q14202: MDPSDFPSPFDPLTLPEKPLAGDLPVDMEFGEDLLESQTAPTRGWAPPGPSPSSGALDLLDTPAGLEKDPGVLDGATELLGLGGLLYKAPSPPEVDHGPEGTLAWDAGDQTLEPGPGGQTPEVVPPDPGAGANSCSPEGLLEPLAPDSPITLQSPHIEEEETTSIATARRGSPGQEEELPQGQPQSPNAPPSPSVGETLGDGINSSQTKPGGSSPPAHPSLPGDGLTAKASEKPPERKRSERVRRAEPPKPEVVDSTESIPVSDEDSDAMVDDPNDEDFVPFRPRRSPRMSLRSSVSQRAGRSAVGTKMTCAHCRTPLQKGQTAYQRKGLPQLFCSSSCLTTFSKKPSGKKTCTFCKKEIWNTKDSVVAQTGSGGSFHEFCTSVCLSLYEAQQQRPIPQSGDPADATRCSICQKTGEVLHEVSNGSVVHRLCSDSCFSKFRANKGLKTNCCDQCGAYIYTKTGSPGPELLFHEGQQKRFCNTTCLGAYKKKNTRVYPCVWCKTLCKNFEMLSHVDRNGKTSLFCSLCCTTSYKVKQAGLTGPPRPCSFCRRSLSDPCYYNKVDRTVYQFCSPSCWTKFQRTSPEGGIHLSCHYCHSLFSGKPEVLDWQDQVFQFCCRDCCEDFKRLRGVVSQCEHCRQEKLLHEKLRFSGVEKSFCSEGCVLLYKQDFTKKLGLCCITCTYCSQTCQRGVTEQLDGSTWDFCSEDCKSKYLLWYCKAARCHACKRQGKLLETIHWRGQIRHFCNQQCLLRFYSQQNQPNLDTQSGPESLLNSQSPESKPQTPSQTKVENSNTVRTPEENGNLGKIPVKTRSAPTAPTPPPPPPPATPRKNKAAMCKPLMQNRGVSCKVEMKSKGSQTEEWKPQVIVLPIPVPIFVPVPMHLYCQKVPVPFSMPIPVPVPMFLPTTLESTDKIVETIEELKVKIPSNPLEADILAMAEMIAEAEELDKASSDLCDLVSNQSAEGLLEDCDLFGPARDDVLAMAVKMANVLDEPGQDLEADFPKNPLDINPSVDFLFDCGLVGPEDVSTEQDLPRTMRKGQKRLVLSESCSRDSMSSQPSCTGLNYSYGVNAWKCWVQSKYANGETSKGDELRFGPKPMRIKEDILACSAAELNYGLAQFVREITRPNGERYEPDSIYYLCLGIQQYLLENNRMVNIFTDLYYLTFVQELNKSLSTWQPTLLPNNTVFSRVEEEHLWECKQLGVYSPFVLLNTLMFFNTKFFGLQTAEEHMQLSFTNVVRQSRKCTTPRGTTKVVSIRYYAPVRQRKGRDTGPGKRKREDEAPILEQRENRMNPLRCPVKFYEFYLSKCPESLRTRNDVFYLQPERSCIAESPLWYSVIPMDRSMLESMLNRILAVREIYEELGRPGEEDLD
UniProt Q15973: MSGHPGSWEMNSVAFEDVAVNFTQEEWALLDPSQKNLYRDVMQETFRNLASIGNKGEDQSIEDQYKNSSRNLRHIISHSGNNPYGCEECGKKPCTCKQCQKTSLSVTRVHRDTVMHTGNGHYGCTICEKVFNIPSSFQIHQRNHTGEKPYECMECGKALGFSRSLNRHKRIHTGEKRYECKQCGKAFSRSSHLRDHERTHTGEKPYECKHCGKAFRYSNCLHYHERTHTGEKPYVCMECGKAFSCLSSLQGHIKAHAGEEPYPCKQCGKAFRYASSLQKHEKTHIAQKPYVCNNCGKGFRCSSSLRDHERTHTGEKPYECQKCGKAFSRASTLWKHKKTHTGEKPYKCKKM
UniProt Q96ME7: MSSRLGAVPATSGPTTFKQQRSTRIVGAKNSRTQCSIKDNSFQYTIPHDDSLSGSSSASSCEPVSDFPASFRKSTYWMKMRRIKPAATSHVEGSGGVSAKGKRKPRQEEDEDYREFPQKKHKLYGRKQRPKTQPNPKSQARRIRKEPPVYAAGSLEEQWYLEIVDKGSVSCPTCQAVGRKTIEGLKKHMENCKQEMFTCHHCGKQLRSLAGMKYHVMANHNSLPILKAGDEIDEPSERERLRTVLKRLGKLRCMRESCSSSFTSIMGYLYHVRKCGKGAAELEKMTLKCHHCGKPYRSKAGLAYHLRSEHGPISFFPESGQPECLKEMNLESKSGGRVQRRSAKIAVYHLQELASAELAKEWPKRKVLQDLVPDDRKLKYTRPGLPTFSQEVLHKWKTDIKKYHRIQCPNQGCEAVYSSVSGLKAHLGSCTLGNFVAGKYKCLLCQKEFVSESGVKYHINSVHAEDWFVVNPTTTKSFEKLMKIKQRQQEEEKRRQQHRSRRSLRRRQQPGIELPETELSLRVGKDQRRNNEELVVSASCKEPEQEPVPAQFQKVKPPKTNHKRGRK
UniProt Q5HYK9: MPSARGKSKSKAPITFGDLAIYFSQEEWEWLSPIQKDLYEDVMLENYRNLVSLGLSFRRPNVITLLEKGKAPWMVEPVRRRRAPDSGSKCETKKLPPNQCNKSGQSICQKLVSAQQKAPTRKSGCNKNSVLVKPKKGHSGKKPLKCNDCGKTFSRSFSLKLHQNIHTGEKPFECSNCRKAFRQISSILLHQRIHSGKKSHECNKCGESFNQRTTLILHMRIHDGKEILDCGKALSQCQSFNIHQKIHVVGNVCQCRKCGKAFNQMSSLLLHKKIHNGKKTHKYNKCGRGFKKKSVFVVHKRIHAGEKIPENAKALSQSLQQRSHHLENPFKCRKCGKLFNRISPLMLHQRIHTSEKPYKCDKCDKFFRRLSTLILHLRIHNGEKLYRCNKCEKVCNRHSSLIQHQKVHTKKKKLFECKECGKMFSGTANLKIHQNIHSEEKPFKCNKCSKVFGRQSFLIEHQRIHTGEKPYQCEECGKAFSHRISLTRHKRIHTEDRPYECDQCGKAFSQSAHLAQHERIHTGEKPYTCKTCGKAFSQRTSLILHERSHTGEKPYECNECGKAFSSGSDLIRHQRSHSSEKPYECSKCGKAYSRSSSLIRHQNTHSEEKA
UniProt Q9Y3S2: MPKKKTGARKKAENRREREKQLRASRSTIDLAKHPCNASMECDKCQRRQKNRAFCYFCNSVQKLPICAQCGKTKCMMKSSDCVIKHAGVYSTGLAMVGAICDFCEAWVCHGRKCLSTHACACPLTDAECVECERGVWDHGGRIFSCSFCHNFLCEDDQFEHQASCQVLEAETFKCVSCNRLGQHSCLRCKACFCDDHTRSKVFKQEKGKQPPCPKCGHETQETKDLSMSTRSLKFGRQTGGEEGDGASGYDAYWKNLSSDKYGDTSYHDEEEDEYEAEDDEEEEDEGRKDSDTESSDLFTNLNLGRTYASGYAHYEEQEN
UniProt Q9H4I2: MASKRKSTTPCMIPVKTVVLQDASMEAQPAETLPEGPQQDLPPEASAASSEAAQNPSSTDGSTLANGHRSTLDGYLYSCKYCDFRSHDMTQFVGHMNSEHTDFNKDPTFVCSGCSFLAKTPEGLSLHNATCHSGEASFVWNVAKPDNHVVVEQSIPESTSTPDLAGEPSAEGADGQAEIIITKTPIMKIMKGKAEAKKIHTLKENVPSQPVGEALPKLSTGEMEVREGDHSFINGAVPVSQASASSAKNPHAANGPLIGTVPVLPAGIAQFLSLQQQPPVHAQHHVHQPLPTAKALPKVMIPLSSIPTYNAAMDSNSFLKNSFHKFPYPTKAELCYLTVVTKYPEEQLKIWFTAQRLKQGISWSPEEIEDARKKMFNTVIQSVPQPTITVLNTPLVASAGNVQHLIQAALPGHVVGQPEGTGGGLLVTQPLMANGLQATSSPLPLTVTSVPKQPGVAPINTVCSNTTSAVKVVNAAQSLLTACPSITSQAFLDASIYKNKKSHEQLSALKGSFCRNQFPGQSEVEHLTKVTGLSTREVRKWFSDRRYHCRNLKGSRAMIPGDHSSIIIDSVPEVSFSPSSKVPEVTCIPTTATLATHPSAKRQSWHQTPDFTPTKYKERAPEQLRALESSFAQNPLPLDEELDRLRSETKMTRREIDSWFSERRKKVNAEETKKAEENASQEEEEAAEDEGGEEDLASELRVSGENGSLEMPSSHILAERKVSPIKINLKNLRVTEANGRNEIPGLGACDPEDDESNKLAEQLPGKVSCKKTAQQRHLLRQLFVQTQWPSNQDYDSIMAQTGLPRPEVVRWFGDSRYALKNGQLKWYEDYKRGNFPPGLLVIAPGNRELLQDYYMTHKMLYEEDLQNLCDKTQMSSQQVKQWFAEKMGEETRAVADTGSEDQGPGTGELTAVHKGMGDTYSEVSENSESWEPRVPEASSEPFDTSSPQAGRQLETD
UniProt Q14966: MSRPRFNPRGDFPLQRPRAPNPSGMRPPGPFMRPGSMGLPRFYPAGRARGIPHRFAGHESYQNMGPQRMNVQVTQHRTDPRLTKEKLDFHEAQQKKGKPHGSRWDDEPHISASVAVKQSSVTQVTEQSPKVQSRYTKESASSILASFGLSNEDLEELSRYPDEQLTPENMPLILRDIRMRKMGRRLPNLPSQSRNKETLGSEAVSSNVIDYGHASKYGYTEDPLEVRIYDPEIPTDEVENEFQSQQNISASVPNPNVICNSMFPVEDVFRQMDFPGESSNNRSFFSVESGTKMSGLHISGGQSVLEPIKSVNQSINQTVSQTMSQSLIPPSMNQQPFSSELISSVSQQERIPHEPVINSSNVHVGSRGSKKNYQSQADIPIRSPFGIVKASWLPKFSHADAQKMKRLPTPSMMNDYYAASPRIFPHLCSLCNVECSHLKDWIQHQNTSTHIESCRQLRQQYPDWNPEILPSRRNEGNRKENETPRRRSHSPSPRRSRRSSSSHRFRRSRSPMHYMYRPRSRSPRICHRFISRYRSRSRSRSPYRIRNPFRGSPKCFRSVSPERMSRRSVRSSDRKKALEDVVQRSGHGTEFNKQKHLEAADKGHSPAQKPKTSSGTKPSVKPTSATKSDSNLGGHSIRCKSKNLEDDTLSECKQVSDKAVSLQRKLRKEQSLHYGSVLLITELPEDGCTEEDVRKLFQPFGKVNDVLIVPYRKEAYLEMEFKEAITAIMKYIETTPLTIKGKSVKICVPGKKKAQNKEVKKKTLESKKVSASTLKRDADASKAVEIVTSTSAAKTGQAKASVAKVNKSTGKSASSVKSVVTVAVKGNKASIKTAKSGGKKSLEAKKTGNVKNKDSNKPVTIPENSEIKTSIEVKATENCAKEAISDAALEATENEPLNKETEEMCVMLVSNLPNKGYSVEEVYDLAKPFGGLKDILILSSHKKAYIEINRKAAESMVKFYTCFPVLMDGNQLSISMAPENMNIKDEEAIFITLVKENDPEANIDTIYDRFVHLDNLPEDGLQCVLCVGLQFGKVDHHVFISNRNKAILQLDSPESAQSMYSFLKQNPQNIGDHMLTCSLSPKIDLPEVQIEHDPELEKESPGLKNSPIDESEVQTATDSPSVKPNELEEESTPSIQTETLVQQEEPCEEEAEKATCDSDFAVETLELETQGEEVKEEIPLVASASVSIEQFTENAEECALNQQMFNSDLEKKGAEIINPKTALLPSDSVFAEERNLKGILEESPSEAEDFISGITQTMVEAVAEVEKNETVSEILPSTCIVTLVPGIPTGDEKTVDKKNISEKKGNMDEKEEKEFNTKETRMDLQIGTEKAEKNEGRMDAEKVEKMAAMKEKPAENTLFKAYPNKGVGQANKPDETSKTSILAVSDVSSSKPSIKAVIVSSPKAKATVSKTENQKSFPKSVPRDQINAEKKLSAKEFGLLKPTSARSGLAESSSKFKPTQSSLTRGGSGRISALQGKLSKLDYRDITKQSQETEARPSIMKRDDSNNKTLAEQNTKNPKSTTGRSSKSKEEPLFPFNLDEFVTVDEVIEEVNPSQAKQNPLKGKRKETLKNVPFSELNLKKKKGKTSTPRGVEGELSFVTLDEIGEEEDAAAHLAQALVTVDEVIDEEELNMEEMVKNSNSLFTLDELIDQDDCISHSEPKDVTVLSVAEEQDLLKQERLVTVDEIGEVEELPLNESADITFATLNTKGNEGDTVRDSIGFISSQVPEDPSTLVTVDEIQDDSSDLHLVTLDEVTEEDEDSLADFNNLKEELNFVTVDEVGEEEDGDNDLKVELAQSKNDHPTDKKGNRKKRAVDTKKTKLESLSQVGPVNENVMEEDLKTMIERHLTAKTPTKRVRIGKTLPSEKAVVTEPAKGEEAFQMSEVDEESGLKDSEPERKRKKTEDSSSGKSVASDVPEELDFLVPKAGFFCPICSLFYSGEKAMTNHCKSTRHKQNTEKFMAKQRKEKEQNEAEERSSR
UniProt Q9BS34: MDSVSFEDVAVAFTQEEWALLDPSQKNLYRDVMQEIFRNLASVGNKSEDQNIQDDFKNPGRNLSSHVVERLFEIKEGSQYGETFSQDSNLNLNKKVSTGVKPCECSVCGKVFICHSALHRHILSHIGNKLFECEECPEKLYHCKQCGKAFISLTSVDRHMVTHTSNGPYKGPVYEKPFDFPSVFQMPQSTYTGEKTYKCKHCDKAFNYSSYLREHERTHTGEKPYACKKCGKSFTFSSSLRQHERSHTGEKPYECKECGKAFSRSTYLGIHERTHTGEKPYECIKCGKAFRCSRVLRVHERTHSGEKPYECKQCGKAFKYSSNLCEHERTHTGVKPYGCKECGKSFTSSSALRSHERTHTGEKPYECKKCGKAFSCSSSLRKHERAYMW

Compound: CC1Cc2ccccc2N1C(=O)C1CCCN(C1)C(=O)CCl (mixture of isomers) [TRIM25 ligand 11 (diastereomer mixture)]
Assay: probe-labelled cysteine peptide fold change vs DMSO (competition) (log2 fold change); higher = less target engagement (more negative = stronger competition)
Conditions: THP-1, incubation time: 4 h
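Also: competitive chemoproteomic profiling in live THP-1 cells with an iodoacetamide desthiobiotin (IA-DTB) probe, comparing probe-labelled peptide intensities in compound-treated cells against DMSO-treated controls.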

Row | Target | probe-labelled cysteine peptide fold change (10 µM) | probe-labelled cysteine peptide fold change (50 µM)
1 | ZMYM3_Q14202_436_LCSDSCFSK (UniProt Q14202) | -0.0848 | -0.0935
2 | ZFC3H1_O60293_1405_DNPEIWCHYLR (UniProt O60293) | 0.0931 | 0.121
3 | ZFP91_Q96JP5_520_SYCSGTER (UniProt Q96JP5) | -0.0136 | -0.24
4 | ZMYND8_Q9ULU4_106_EGQVLCCELCPR (UniProt Q9ULU4) | 0.247 | 0.0715
5 | ZNF124_Q15973_245_AFSCLSSLQGHIK (UniProt Q15973) | 0.163 | -0.0798
6 | ZNF106_Q9H2Y7_1853_NCDAFFTAR (UniProt Q9H2Y7) | 0.0391 | -0.0457
7 | ZNF512_Q96ME7_258_ESCSSSFTSIMGYLYHVR (UniProt Q96ME7) | 0.0956 | -0.094
8 | ZNF143_P52747_364_THTGERPYYCTEPGCGR (UniProt P52747) | 0.214 | 0.0623
9 | ZMYM4_Q5VZL5_1480_CSESVK (UniProt Q5VZL5) | -0.0865 | -0.0253
10 | ZNF667_Q5HYK9_146_GHSGKKPLKCNDCGK (UniProt Q5HYK9) | 0.00135 | 0.108
11 | ZNF512_Q96ME7_171+174_GSVSCPTCQAVGR (UniProt Q96ME7) | -0.0279 | -0.0163
12 | ZNF224_Q9NZL3_132_EGDFPCQTEAGLSVIHTR (UniProt Q9NZL3) | 0.246 | -0.206
13 | ZNF330_Q9Y3S2_192+194_ACFCDDHTR (UniProt Q9Y3S2) | 0.0999 | -0.0251
14 | ZHX3_Q9H4I2_11_STTPCMIPVK (UniProt Q9H4I2) | -0.0464 | -0.103
15 | ZNF638_Q14966_1077_QNPQNIGDHMLTCSLSPK (UniProt Q14966) | -0.104 | -0.439
16 | ZNF670_Q9BS34_114_VFICHSALHR (UniProt Q9BS34) | 0.0995 | 0.038

Entries 13–15, quoted:
Row | Target | probe-labelled cysteine peptide fold change (10 µM) | probe-labelled cysteine peptide fold change (50 µM)
13 | ZNF330_Q9Y3S2_192+194_ACFCDDHTR (UniProt Q9Y3S2) | 0.0999 | -0.0251
14 | ZHX3_Q9H4I2_11_STTPCMIPVK (UniProt Q9H4I2) | -0.0464 | -0.103
15 | ZNF638_Q14966_1077_QNPQNIGDHMLTCSLSPK (UniProt Q14966) | -0.104 | -0.439
